Data published in patent US20160090556A1, “PRODUCTS COMPRISING MALODOR REDUCTION MATERIALS” (The Procter & Gamble Company, priority 2014, published 2016).

Experiment: Liquid dish neat product liquid-air partition coefficient
Format: physicochemical

In the case of `O=C(c1ccccc1)c1ccccc1` [Material 655], the “Log of liquid dish neat product liquid-air partition coefficient (Comment Code K/L)” value is reported as “K (Log of liquid dish neat product liquid-air partition coefficient greater than or equal to −7)”.
